Columns and labels:
[1] = tested on: primary human hepatocytes (PHH); test: Cytotoxicity (cellular ATP, CellTiter-Glo) in 2D plated primary human hepatocytes, 48 h treatment; format: cell-based; conditions: Hepatocyte, read-out: Geomean IC50;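 also: 384-well plates, luminescence read-out, normalized to vehicle wells with 1% DMSO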
[2] = tested on: 3D human liver microtissues (hLiMT); test: Cytotoxicity (cellular ATP) in 3D human liver microtissues, 5-6 days treatment; format: cell-based; conditions: read-out: IC50 SHORT;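 also: Hanging-drop spheroids, seven-point dilution series, re-dosed on day 3, CellTiter-Glo 2.0 luminescence, normalized to 0.5 or 1% DMSO vehicle controls on the same plate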
[3] = human, in vivo; cited from earlier work
[4] = tested on: 3D human liver microtissues (hLiMT); test: Cytotoxicity (cellular ATP, CellTiter-Glo 2.0) in 3D human liver microtissues, 14 day repeat-dose treatment; conditions: 336 h
[5] = Hepatocyte, read-out: Geomean IC50 [µM]

Row | Compound | IC50 [1] [µM] | IC50 [2] [µM] | Cmax [3] [µM] | IC50 ([4]; read-out: IC50 LONG) [µM] | IC50 [4, 5] [µM]
1 | O=C1OCCN1/N=C/c1ccc([N+](=O)[O-])o1 [Furazolidone] | 68.3 | 64.9 | 1.51 | 42.9 | ~42.9
2 | N=C(N)NCCN1CCCCCCC1 [Guanethidine] | > 10 |  |  |  | > 10

From PMC5515971, “Utility of spherical human liver microtissues for prediction of clinical drug-induced liver injury” (Archives of Toxicology, 2017)
